## Percent effect of library compounds

By UniProt entry, the sequences of proteins in these tests, tags left out.
UniProt P9WFT3, whole entry: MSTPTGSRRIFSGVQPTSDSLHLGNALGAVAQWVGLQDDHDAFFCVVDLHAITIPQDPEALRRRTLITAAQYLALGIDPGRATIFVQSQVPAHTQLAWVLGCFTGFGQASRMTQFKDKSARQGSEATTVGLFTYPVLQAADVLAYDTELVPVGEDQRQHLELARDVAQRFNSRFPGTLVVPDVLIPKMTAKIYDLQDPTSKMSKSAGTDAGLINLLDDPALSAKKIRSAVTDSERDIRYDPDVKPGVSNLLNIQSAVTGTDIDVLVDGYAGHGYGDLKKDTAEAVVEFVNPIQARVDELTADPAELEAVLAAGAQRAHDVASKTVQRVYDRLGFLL

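Enzyme assay of tryptophanyl-tRNA synthetase; the read-out is not stated. Target: Tryptophan-tRNA ligase, Mycobacterium tuberculosis (UniProt P9WFT3). Compounds at 10 µM. Higher most likely means stronger inhibition; the record gives no direction and few retests gave an IC50. Of about 65,000 compounds tested this way, about 64 (0.098%) reached 50% or more in at least one test.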

Results are given as percent effect. How 0% and 100% were set is not recorded. Most values in the screen are low, and negative values occur. Compounds were drawn at random from those tested, without regard to their results.

| # | SMILES | percent effect |
|---|---|---|
| 1 | `O=C(NCCN1CCOCC1)Nc1cc(F)ccc1-n1cccn1` | -7.282 |
| 2 | `CC(C)c1nn(C)c(N(C)C)c1CNCc1ccc2c(c1)OCO2` | -3.411 |
| 3 | `CCCC(C)(O)c1cc(C(N)=O)no1` (stereo unspecified) | -4.25 |
| 4 | `O=C(Nc1ccc(F)cc1)C1CCN(Cc2noc(C3CC3)n2)CC1` | 1.947 |
| 5 | `CN1CCN(C(=O)c2cc3sccc3n2Cc2ccccc2F)CC1` | -1.848 |
| 6 | `CC1(C)CNC(=O)c2nc(C3CCCN(S(C)(=O)=O)C3)[nH]c2C1` (stereo unspecified) | 4.959 |
| 7 | `COc1cccc(Cn2cc(C3=CCN(CCO)CC3)cn2)c1` | -7.518 |
| 8 | `CC(C)C1CN(C(=O)c2ccccc2)CCS1` (stereo unspecified) | 5.87 |
| 9 | `Cc1cc2c(=O)n3c(nc2s1)CCN(Cc1cnn(C)c1C)CC3` | 1.421 |
| 10 | `Cn1cccc1C(=O)N1CCC2(CC1)CN(S(C)(=O)=O)c1ccccc12` | -6.977 |
| 11 | `CC(C)=CCN1CCN(Cc2cccc(C)n2)CC1CCO` (stereo unspecified) | 3.61 |
| 12 | `Cc1noc(C)c1CCC(=O)N1CCCCC1CNS(C)(=O)=O` (stereo unspecified) | -0.06535 |
| 13 | `CCOc1cccc2c1OCC(C(=O)NS(=O)(=O)c1ccc(Br)s1)=C2` | 12.83 |
| 14 | `COC1CCN(Cc2csc(C(C)C)n2)CC1` | -0.7323 |
| 15 | `CC(C)Nc1nc(N2CCCC2)nc2c1CCN(S(C)(=O)=O)CC2` | 3.457 |
| 16 | `CCc1nc(C2CCCN2Cc2nnc(CC)o2)no1` (stereo unspecified) | 2.522 |
| 17 | `CCc1[nH]c2ccc(CNC(=O)Cc3c(C)nc(N)nc3C)cc2c1C` | 0.1805 |
| 18 | `Cc1nnc(CN(Cc2ccc3c(c2)OCO3)C2CCC(C)CC2)o1` (stereo unspecified) | -2.257 |
| 19 | `CCn1nc(C)c(CN(CCCN(C)C)Cc2ccccn2)c1C` | 11.21 |
| 20 | `Cc1ccccc1-c1cccc(CN2C[C@H]3C(=O)NC[C@@]3(C(=O)O)C2)c1` | 9.485 |
| 21 | `CC(C)CNC(=O)CN(CC(=O)NCC(C)C)S(C)(=O)=O` | 0.8811 |
| 22 | `O=S(=O)(c1ccc(Cl)cc1)N1C[C@@H]2CCN[C@@H]2C1` | -3.638 |
| 23 | `COCCN(C)C(=O)c1nc2c(s1)CCCN2c1ncccn1` | -2.729 |
| 24 | `COc1c(CNC2CCOc3ccccc32)c(C)nn1C` (stereo unspecified) | -0.09234 |
| 25 | `O=C(NCCC1CN(Cc2cccnc2)CCO1)c1ccsc1` (stereo unspecified) | 4.03 |
| 26 | `CSc1ncccc1C(=O)N1C[C@H]2CC[C@@H]1CN(c1ncccn1)C2` | 1.243 |
| 27 | `CCN(CC)Cc1cc(C(=O)N2CCC3(CC2)NCCNC3=O)c(C)o1` | -2.285 |
| 28 | `Cc1ccc(C(=O)NCC2(O)CCOCC2)cc1Br` | -3.173 |
| 29 | `COc1ccc(C(C)NCCC(N)=O)cc1F` (stereo unspecified) | 1.817 |
| 30 | `CCn1nc(C)c(NC(=O)CN(C)C(C)c2nccs2)c1C` (stereo unspecified) | 2.413 |
| 31 | `O=C(c1cnccn1)N1CCCC2(CCCN2Cc2cccnc2)C1` (stereo unspecified) | 1.082 |
| 32 | `CCn1cc2c(n1)CN(C(=O)c1ccncc1)CC2COCC1CC1` (stereo unspecified) | -0.9444 |
| 33 | `Cc1nccn1C1CCCN(C(=O)CCc2nc(C(C)C)no2)C1` (stereo unspecified) | -5.589 |
| 34 | `CCc1nc(CNC(=O)Nc2ccc(C(=O)NC)cc2C)cs1` | 2.131 |
| 35 | `CN(C)CCN(Cc1ccccc1)C(=O)C1=NNC(=O)CC1` | -1.065 |
| 36 | `CCCN1CCN(C(=O)Cn2nc(C(F)(F)F)c(Br)c2C2CC2)CC1` | -2.136 |
| 37 | `CCC1=NN2C(=N)/C(=C\c3cccn3-c3ccc(Br)cc3)C(=O)N=C2S1` | 3.732 |
| 38 | `CN(CCc1ccccn1)C(=O)Nc1cccnc1N1CCCC1` | 0.8215 |
| 39 | `Cc1cccc(CN2CCN(C(=O)c3cccnc3O)CC2)c1` | -5.635 |
| 40 | `Cc1n[nH]c(C)c1-c1c(C#N)c(N)nc2c1CCc1[nH]ccc1-2` | -2.926 |
| 41 | `COc1ccccc1CNC(=O)N1CCCC(NS(C)(=O)=O)C1` (stereo unspecified) | 1.329 |
| 42 | `Cc1cnc2c(c1)N(C(=O)c1ccc(=O)n(C)c1)CCO2` | -8.046 |
| 43 | `COCC(O)CNC(=O)Nc1ccc(Cl)cc1-n1cccc1` (stereo unspecified) | -2.8 |
| 44 | `COc1cc(C)nc(N2CCN(C(=O)COCC(F)(F)F)CC2)n1` | -2.301 |
| 45 | `Cc1noc(C)c1CN1CC[C@@H]2O[C@@H](COCC(C)C)CC[C@@H]21` | -6.611 |
| 46 | `CC(NC1(CNC(=O)Cn2cccn2)CCOCC1)c1ccccc1` (stereo unspecified) | 0.6706 |
| 47 | `O=C(CSc1ncccn1)N1C[C@H]2CC[C@@H]1CN(Cc1ccncc1)C2` | 2.922 |
| 48 | `COc1cccc2sc(OC3CN(C(=O)C4=COCCO4)C3)nc12` | -0.08333 |
| 49 | `CCOC(C)c1noc(CN2CCN(c3ccncc3)CC2)n1` (stereo unspecified) | -3.091 |

3 of the entries, repeated:

* COCC(O)CNC(=O)Nc1ccc(Cl)cc1-n1cccc1 (stereo unspecified) : -2.8%
* COCCN(C)C(=O)c1nc2c(s1)CCCN2c1ncccn1 : -2.729%
* Cc1ccccc1-c1cccc(CN2C[C@H]3C(=O)NC[C@@]3(C(=O)O)C2)c1 : 9.485%

Source: ChEMBL document CHEMBL3988442, “University of Dundee, Small-Polar-MMV Screening Library” (2021).